Test results as given in PubChem BioAssay AID1487 (National Center for Advancing Translational Sciences (NCATS), 2009).
Some of the results follow. These are further read-outs of the screen, such as a control signal, another cell line or another target. No call is given for them. Most of these compounds were active or inconclusive in the main read-out, so they are no random draw. Potencies come from curve fits of mixed quality, noted in brackets.

Experiment: qHTS Assay for Modulators of Lamin A Splicing
Settings: HeLa LMNA splicing GFP/RFP minigene ratio, 48 h
Outline: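 S3 HeLa cells stably expressing lamin A-EGFP splicing minigene plus DsRed2, 600 cells/well, 48 h compound exposure at 37C. Laser-scanning cytometry; analysed as GFP (500-530 nm)/RFP (575-640 nm) total intensity ratio; 0.5% DMSO vehicle.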

[1] = measured here: RFP viability control channel
[2] = measured here: GFP splicing reporter channel

SMILES	AC50 [1]	AC50 [2]
CCCc1nnc2n1N=C(c1ccc(OC)c(OC)c1)CS2	31.6 µM [rising, single point]	
CCn1c(C)nc([N+](=O)[O-])c1Sc1ccc(F)cc1	20 µM [rising, partial curve]	
Cc1cccc(N2CCN(C(=O)C3CCN(c4ncnc5c4nc4n5CCCCC4)CC3)CC2C)c1 (configuration not stated)		11.2 µM [falling, partial curve]
CC(=O)Nc1cccc(Oc2ccc(-c3noc(C)n3)cc2)c1	12.6 µM [rising, partial curve]	
Cc1ccc(C)c(NC(=O)c2cc(-c3cccnc3)nc3ccccc23)c1	0.2 µM [falling, full curve, poor fit]	10 µM [falling, partial curve]
CCN(CC)C(=S)SCC(=O)c1ccc(F)cc1	25.1 µM [falling, single point]	20 µM [falling, single point]
Cc1cc(NC(=O)COc2ccc(Cl)cc2Cl)n(CCC#N)n1	20 µM [rising, partial curve]	14.1 µM [rising, single point]
O=c1[nH]c(=O)n(C2CC(O)C(CO)O2)cc1F (configuration not stated)	0.00398 µM [rising, full curve, poor fit]	2.24 µM [rising, full curve]
CCC(C)NC(=O)CCC(=O)N1Cc2ccccc2Oc2ncccc21 (configuration not stated)	17.8 µM [rising, partial curve, poor fit]	
Cc1ccc(NC(=S)NC(NC(=O)c2ccccc2C)C(Cl)(Cl)Cl)c(C)c1 (configuration not stated)	35.5 µM [falling, single point]	35.5 µM [falling, single point]
CCOc1ccc(C2=Cc3cc(OC)c(OC)cc3C(=C(Cl)Cl)O2)cc1		25.1 µM [rising, single point]
Cc1ccc(S(=O)(=O)Nc2ccc3nc(-c4ccc(F)cc4)oc3c2)cc1	14.1 µM [falling, partial curve]	25.1 µM [falling, single point]
CCOC(=O)CNC(=S)N(Cc1ccc(C)cc1)Cc1ccc(C)o1	14.1 µM [rising, single point]	14.1 µM [rising, single point]
FC(F)(F)c1ccc(/C=N/N2CCN(Cc3ccccc3)CC2)cc1	12.6 µM [rising, single point]	
Nc1cc[n+](CC(=O)Nc2ccccc2)cc1	12.6 µM [falling, single point]	
CCCCCCNc1c(C(=O)OCC)c(=O)[nH]c2ccccc12	11.2 µM [rising, partial curve]	12.6 µM [rising, partial curve]
Cc1cccc(CNc2cc(-c3c(C)noc3C)ncn2)c1		12.6 µM [falling, partial curve]
Cc1ccc(CNC(=O)c2c(C)oc3ncnc(N4CCOCC4)c23)cc1	6.31 µM [falling, partial curve, poor fit]	4.47 µM [falling, full curve, poor fit]
CC1=CC(C)(C)N2C(=O)C3(NCCc4c3[nH]c3ccccc43)c3cc(C)cc1c32 (configuration not stated)	5.01 µM [rising, partial curve]	
O=C(CCSc1ccccc1)Nc1nc2c(s1)CCCC2	35.5 µM [rising, single point]	
O=C(COC(=O)Cc1c[nH]c2ccccc12)NC1CCCCC1		2 µM [rising, full curve, poor fit]
O=C(CSc1ncnc2c1oc1ccccc12)N1CCCc2ccccc21	11.2 µM [rising, partial curve, poor fit]	
COc1cccc(NC(=O)C(OC(=O)c2ccccc2NS(=O)(=O)c2cccs2)c2ccccc2)c1 (configuration not stated)	14.1 µM [rising, partial curve, poor fit]	7.94 µM [rising, partial curve]
COc1cc(OC)c(N(C)C(=O)c2c(C)oc3ncn(CC(C)C)c(=O)c23)cc1Cl		0.00891 µM [falling, full curve, poor fit]
COc1cccc(-n2c(SCC(=O)Nc3cc(C)on3)nc3ccccc3c2=O)c1	10 µM [rising, partial curve, poor fit]	
Cc1ccc(NC(=O)Cn2cc(S(=O)(=O)Cc3ccc(F)cc3)c3ccccc32)cc1Cl	31.6 µM [rising, single point]	12.6 µM [rising, partial curve, poor fit]
CCN1C(=O)/C(=C2\SC(=S)N(CCCOC)C2=O)c2ccccc21	3.98 µM [falling, single point]	3.98 µM [falling, single point]
COc1ccc(-c2cc(C(F)(F)F)c3c(n2)sc2c(O)cc(=O)[nH]c23)c(OC)c1	12.6 µM [rising, partial curve]	

SMILES	AC50 [1]	AC50 [2]
COc1cccc(Nc2ncnc3ccccc23)c1	35.5 µM [rising, single point]	
C/C(=N\n1cnnc1)c1ccc(C#N)cc1	3.55 µM [rising, partial curve]	3.98 µM [rising, single point]
COc1ccc(/C=N/NC(=O)CCN2CCN(c3ccccc3)CC2)c(OC)c1OC	3.98 µM [rising, partial curve, poor fit]	
CC(C)(C)C(=O)CNS(=O)(=O)c1ccc(S(=O)(=O)NC2CCCC2)cc1	31.6 µM [rising, single point]	
COC1=C(Nc2ccc(OC)cc2)C(=O)c2ccccc2C1=O	35.5 µM [rising, partial curve]	20 µM [rising, partial curve]
O=c1ccc2cc3c4c(c2o1)CCCN4CCC3	0.00447 µM [falling, full curve, poor fit]	0.00447 µM [falling, full curve, poor fit]
O=c1cnn([C@@H]2O[C@H](CO)[C@@H](O)[C@H]2O)c(=O)[nH]1	0.224 µM [rising, full curve]	5.62 µM [rising, partial curve, poor fit]
Cc1ccc(NC(=O)/C=C\C(=O)N(c2ccc(C(C)C)cc2)C(C(=O)NCc2ccco2)c2ccc(F)cc2)cc1 (configuration not stated)	0.2 µM [falling, full curve, poor fit]	0.251 µM [falling, full curve, poor fit]
COc1cccc(-c2ccc(C#N)c(SCC(=O)NCc3ccco3)n2)c1		0.00316 µM [rising, full curve, poor fit]
COC(=O)C1=C(O)C(C(=O)OC)C(c2ccc(C)cc2)C(C#N)(C#N)C1c1ccc(C)cc1 (configuration not stated)	6.31 µM [rising, full curve]	
COc1cc(C(=O)NCC(=O)N/N=C(/C)c2ccc3c(c2)CCCC3)cc(OC)c1OC	2.24 µM [rising, partial curve, poor fit]	
CCCCNC(=S)Nc1ccc(SC(F)F)cc1	10 µM [rising, partial curve, poor fit]	
CCN(CC)S(=O)(=O)c1ccc(N=NC2=C(O)CC(C)(C)CC2=O)cc1		2.51 µM [rising, partial curve]
O=C(C/C=N\OCc1ccc([N+](=O)[O-])cc1)Nc1ccc(Cl)cc1	7.94 µM [falling, partial curve]	35.5 µM [falling, partial curve, poor fit]
COc1ccc(CNC(=O)CC2C(=O)NCCN2CC(C)(C)C)c(OC)c1 (configuration not stated)		22.4 µM [rising, partial curve, poor fit]
CN(C)c1ccc(NC(=O)CSc2n[nH]c(-c3ccco3)n2)cc1	0.0398 µM [falling, full curve, poor fit]	
Cc1ccc(S(=O)(=O)CCSc2cccc(C(=O)Nc3ccccc3C(=O)O)c2)cc1	35.5 µM [rising, single point]	
c1ccc(C2Oc3ccccc3C3CC(c4cccs4)=NN32)cc1 (configuration not stated)	12.6 µM [rising, partial curve]	
CCN=c1scc(C)n1/N=C/c1cc(Br)c(O)c(OC)c1	35.5 µM [rising, single point]	
COc1cccc(NC(=S)N/N=C2\CC(C)(C)Oc3ccc(O)cc32)c1	10 µM [rising, partial curve]	
CCN(CC)C(=O)C1CCN(S(=O)(=O)c2c(C)noc2/C=C/c2cccc(OC)c2)CC1	35.5 µM [falling, single point]	35.5 µM [falling, single point]
O=C(CCCCCNc1nc(=S)[nH]c2ccccc12)NCCc1c[nH]c2ccccc12	1.41 µM [falling, full curve, poor fit]	1 µM [falling, partial curve]
CCCCc1ccc(NC(=S)N2CCC(O)CC2)cc1	6.31 µM [falling, single point]	
O=C(CCc1ccccc1)NNC(=S)NC(=O)c1ccc(Cl)cc1	31.6 µM [rising, single point]	
COc1ccc2c(c1)CCc1c(C(=O)Nc3c(C)nn(Cc4ccccc4)c3C)noc1-2	11.2 µM [rising, single point]	
O=C(NCCOc1cccc(Cl)c1Cl)c1cc(-n2cnnc2)ccc1Cl	14.1 µM [rising, partial curve]	7.94 µM [rising, partial curve]
COc1ccc(/C=N/NC(C)(C)C)c(OC)c1	0.158 µM [falling, full curve, poor fit]	0.00316 µM [falling, full curve, poor fit]

Given bar-delimited: entries from further up.
SMILES | AC50 [1] | AC50 [2]
O=c1ccc2cc3c4c(c2o1)CCCN4CCC3 | 0.00447 µM [falling, full curve, poor fit] | 0.00447 µM [falling, full curve, poor fit]
O=c1cnn([C@@H]2O[C@H](CO)[C@@H](O)[C@H]2O)c(=O)[nH]1 | 0.224 µM [rising, full curve] | 5.62 µM [rising, partial curve, poor fit]
